We go through one compound from patent publication US20050163711A1, “Intra-dermal delivery of biologically active agents” (Becton, Dickinson and Company, Inc., priority 2003, published 2005).

The data set in a line: Comparison of ID (34G, 1 mm) and Mantoux injections, depot measurement in skin sections. In kind it is in vivo, Yorkshire swine. The note with it: for site of deposition in skin section: swine.

On to `Cc1cc(-c2ccc(/N=N/c3ccc4c(S(=O)(=O)O)cc(S(=O)(=O)O)c(N)c4c3O)c(C)c2)ccc1/N=N/c1ccc2c(S(=O)(=O)O)cc(S(=O)(=O)O)c(N)c2c1O` [Evans Blue], for which, where the note is “swine flank, 25 uL, p=0.03”, the “average lower depth of depot, 34G 1 mm needle relative to Mantoux injection” value is on record as 1.2 mm. Besides, the “depot width, ID 34G 1 mm needle vs Mantoux injection” value (swine flank, 25 uL, t-Test) is on record as “significantly (p=0.05) smaller width”. Also, the “overall depot height, ID 34G 1 mm needle vs Mantoux injection” value (swine flank, 25 uL, t-Test p=0.45) is given as “no significant difference”. The “site of deposition in skin section” value by setting is: (34G 1 mm needle) “completely within the dermis”; (Mantoux injection, 27G needle) “majority of the EB was injected into the SC”.
